Experimental data taken from paper PMC3357421, “Conserved Orb6 Phosphorylation Sites Are Essential for Polarized Cell Growth in Schizosaccharomyces pombe” (PLoS ONE, 2012).
No constants are given. Whether binding was seen depends on the method and setting. In cells and extracts the contact can be indirect. Some binding calls cover weakened binding; strength is not graded here. Where a sequence is shown, tags or fusion partners need not be part of it.

T1: HA-Orb6 (S. pombe) (UniProt O13310)
T1 sequence: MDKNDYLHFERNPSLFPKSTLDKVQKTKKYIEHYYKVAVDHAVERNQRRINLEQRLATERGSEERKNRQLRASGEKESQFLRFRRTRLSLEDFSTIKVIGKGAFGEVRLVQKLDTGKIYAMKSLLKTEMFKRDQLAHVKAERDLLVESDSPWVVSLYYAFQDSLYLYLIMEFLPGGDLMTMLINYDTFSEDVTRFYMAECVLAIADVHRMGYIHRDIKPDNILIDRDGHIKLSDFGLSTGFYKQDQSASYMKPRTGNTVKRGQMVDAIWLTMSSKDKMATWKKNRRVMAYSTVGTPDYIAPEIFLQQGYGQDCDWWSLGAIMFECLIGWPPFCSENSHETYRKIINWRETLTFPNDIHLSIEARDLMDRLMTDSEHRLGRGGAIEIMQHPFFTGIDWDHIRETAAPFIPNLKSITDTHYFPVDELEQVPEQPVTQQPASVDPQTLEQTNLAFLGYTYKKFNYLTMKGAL

T2: HA-Orb6^S291A (S. pombe) (UniProt O13310)
T2 sequence: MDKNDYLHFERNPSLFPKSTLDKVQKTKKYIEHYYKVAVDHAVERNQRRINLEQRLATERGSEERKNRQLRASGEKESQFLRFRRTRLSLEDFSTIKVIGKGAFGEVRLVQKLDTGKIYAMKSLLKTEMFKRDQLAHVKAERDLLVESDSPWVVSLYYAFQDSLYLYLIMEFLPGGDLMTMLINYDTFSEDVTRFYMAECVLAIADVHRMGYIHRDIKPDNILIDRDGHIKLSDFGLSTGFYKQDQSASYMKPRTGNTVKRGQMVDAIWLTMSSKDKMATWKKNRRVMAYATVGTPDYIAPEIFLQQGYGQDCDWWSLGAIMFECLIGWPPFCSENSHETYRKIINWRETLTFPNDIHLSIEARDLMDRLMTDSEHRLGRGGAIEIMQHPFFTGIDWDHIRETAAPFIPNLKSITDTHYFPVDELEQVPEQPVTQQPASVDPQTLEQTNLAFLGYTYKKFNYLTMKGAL

T3: HA-Orb6^T456A (S. pombe) (UniProt O13310)
T3 sequence: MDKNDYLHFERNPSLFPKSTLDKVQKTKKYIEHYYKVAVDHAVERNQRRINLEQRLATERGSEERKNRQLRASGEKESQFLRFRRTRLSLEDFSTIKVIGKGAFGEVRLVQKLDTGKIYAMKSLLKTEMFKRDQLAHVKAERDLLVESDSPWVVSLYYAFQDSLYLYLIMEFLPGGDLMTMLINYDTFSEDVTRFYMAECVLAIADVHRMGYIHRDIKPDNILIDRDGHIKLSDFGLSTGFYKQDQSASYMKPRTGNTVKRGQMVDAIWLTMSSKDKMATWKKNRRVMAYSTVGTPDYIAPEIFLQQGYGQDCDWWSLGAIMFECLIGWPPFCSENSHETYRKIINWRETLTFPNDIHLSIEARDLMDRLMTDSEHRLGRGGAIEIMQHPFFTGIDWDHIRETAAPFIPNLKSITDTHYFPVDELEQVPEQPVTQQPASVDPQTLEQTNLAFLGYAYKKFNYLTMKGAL

T4: HA-Nak1 (S. pombe) (UniProt O75011)
T4 sequence: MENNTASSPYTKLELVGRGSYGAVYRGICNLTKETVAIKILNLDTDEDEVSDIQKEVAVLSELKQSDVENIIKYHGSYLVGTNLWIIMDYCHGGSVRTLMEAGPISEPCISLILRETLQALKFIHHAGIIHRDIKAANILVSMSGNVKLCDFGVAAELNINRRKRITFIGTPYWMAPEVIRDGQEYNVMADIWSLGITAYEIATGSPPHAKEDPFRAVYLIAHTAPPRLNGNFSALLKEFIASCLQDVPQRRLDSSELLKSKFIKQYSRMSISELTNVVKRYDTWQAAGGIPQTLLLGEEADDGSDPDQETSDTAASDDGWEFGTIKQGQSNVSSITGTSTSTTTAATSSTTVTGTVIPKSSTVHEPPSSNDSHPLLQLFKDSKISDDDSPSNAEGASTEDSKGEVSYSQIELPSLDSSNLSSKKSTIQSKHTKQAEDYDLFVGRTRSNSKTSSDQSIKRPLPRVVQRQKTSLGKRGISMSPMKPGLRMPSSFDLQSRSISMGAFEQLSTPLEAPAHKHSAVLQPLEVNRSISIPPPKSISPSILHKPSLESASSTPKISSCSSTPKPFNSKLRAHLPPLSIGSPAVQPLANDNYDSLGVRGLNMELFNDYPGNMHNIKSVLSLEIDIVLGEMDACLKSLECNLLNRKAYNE

T5: HA-Nak1^1–629 (S. pombe) (UniProt O75011)
T5 sequence: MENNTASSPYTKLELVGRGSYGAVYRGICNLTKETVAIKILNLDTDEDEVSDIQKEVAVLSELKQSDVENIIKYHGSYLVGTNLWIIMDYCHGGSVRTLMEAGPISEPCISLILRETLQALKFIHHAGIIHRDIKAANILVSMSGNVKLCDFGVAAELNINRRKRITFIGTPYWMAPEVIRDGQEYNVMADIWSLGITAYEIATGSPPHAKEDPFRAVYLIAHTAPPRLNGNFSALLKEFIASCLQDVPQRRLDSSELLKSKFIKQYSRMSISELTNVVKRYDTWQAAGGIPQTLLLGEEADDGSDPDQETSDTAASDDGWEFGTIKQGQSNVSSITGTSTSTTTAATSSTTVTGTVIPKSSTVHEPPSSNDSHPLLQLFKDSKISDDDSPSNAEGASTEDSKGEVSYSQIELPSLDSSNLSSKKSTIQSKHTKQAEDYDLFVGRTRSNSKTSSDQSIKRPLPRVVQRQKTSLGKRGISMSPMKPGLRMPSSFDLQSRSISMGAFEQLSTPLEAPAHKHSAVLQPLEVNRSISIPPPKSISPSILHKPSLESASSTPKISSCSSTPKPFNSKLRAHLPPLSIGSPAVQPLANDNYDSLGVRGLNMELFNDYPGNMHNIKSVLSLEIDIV

T6: HA-Nak1^554–652 (S. pombe) (UniProt O75011)
T6 sequence: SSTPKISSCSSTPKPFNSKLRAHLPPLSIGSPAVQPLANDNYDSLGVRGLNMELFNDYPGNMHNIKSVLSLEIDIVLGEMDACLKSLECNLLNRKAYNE


Assays:
Experiment in all cases: co-IP; extracts of S. pombe WT (SP199) cells co-expressing an HA-tagged and a Myc-tagged protein; HA-protein immunoprecipitated with 12CA5 (anti-HA) and protein A sepharose, 2 hours at 4°C; lysis buffer 50 mM Tris-HCl pH 7.4, 100 mM NaCl, 2 mM EDTA, 0.1% Non-Idet P-40; immunoprecipitates probed with anti-Myc (9E10)
HA-Orb6 (S. pombe) = biological target: T1, HA-Orb6 (S. pombe)
HA-Orb6^S291A (S. pombe) = biological target: T2, HA-Orb6^S291A (S. pombe)
HA-Orb6^T456A (S. pombe) = biological target: T3, HA-Orb6^T456A (S. pombe)
HA-Nak1 (S. pombe) = biological target: T4, HA-Nak1 (S. pombe)
HA-Nak1^1–629 (S. pombe) = biological target: T5, HA-Nak1^1–629 (S. pombe)
[1] = biological target: T6, HA-Nak1^554–652 (S. pombe)

Row | binding (HA-Orb6 (S. pombe)) | binding (HA-Orb6^S291A (S. pombe)) | binding (HA-Orb6^T456A (S. pombe)) | binding (HA-Nak1 (S. pombe)) | binding (HA-Nak1^1–629 (S. pombe)) | binding [1] | Binder
1 | binds | binds | binds | – | – | – | Myc-Nak1 (enzyme, UniProt O75011 1-652) MENNTASSPYTKLELVGRGSYGAVYRGICNLTKETVAIKILNLDTDEDEVSDIQKEVAVLSELKQSDVENIIKYHGSYLVGTNLWIIMDYCHGGSVRTLMEAGPISEPCISLILRETLQALKFIHHAGIIHRDIKAANILVSMSGNVKLCDFGVAAELNINRRKRITFIGTPYWMAPEVIRDGQEYNVMADIWSLGITAYEIATGSPPHAKEDPFRAVYLIAHTAPPRLNGNFSALLKEFIASCLQDVPQRRLDSSELLKSKFIKQYSRMSISELTNVVKRYDTWQAAGGIPQTLLLGEEADDGSDPDQETSDTAASDDGWEFGTIKQGQSNVSSITGTSTSTTTAATSSTTVTGTVIPKSSTVHEPPSSNDSHPLLQLFKDSKISDDDSPSNAEGASTEDSKGEVSYSQIELPSLDSSNLSSKKSTIQSKHTKQAEDYDLFVGRTRSNSKTSSDQSIKRPLPRVVQRQKTSLGKRGISMSPMKPGLRMPSSFDLQSRSISMGAFEQLSTPLEAPAHKHSAVLQPLEVNRSISIPPPKSISPSILHKPSLESASSTPKISSCSSTPKPFNSKLRAHLPPLSIGSPAVQPLANDNYDSLGVRGLNMELFNDYPGNMHNIKSVLSLEIDIVLGEMDACLKSLECNLLNRKAYNE
2 | – | – | – | binds | binds | binds | GST-Orb6 (enzyme, S. pombe, UniProt O13310 1-469, looked up, Orb6, Ndr-related Ser/Thr kinase of fission yeast (Schizosaccharomyces pombe); PCR-amplified cDNA fragment encoding Orb6 in pGEX-5X-1 (a pGEX-6p-1 construct was also made); also called pGEX-5X-1-Orb6; source: E. coli BL21, purified (Glutathione Sepharose 4B)) MDKNDYLHFERNPSLFPKSTLDKVQKTKKYIEHYYKVAVDHAVERNQRRINLEQRLATERGSEERKNRQLRASGEKESQFLRFRRTRLSLEDFSTIKVIGKGAFGEVRLVQKLDTGKIYAMKSLLKTEMFKRDQLAHVKAERDLLVESDSPWVVSLYYAFQDSLYLYLIMEFLPGGDLMTMLINYDTFSEDVTRFYMAECVLAIADVHRMGYIHRDIKPDNILIDRDGHIKLSDFGLSTGFYKQDQSASYMKPRTGNTVKRGQMVDAIWLTMSSKDKMATWKKNRRVMAYSTVGTPDYIAPEIFLQQGYGQDCDWWSLGAIMFECLIGWPPFCSENSHETYRKIINWRETLTFPNDIHLSIEARDLMDRLMTDSEHRLGRGGAIEIMQHPFFTGIDWDHIRETAAPFIPNLKSITDTHYFPVDELEQVPEQPVTQQPASVDPQTLEQTNLAFLGYTYKKFNYLTMKGAL
